Measured values published in PubChem BioAssay AID588590 (National Center for Advancing Translational Sciences (NCATS), 2011).
The campaign covered roughly 390,000 compounds. About 4,000 (1%) were called active. The inconclusive results got no clear call from the source; some entries with a clear call stand among them for comparison. Calls follow the shape of the dose curve; as a rule, active = well fitted inhibition curve with a large enough effect; inconclusive = small, poorly fitted or top-dose-only effect, or another doubt; inactive = no such curve, though single readings can be large or run the other way. Where the call is inconclusive, the potency comes from a doubtful curve fit.

Protein sequences, listed by entry. Tags and fused reporters are not part of them. Lines headed by an entry give the natural chain unless they say otherwise; changes in a name come on top.
UniProt Q9UNA4: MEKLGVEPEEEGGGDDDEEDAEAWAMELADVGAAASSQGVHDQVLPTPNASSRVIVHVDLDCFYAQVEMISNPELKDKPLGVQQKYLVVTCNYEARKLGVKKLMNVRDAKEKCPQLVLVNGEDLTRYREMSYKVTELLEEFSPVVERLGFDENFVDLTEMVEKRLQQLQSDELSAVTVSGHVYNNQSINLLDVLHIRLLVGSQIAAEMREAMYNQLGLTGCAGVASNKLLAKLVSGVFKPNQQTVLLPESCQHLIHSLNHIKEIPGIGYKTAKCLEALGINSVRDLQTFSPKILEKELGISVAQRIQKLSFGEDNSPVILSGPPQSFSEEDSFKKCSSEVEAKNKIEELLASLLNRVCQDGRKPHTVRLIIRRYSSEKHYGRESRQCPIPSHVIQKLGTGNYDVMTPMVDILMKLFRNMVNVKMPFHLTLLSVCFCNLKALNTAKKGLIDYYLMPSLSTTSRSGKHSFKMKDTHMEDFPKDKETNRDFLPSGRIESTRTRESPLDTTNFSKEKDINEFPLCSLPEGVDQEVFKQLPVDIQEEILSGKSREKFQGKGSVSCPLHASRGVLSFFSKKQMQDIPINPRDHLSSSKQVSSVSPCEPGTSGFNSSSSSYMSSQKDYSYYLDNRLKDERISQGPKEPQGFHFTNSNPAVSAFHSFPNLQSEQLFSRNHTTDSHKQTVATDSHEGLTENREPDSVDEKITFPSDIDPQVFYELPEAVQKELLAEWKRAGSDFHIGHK

target: DNA polymerase iota (Homo sapiens) (UniProt Q9UNA4); assay: qHTS for Inhibitors of Polymerase Iota; conditions: Pol iota fluorescent replication assay, 10 min; series mostly up to 115 µM
Outline: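 Fluorescent replication assay read twice, at 0 min and 10 min after adding 50 nM (final) substrate. Enzyme (10 nM) and compounds were first incubated 15 min at room temperature; enzyme-free buffer wells were negative controls.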
Potency is read from the fitted curve at half-maximal effect.

Structure (SMILES)	Potency
CCN1CCN(C(c2ccc(SC)cc2)c2c(O)cc(C)n(Cc3ccco3)c2=O)CC1 (stereo not given)	inconclusive: 89.1 µM [inhibitor, partial curve, poor fit]
COc1cc(CCC(=O)OCC(=O)Nc2sccc2C(N)=O)cc(OC)c1OC	inconclusive: 22.4 µM [inhibitor, full curve, poor fit]
Cn1cc(S(=O)(=O)N2CCCC2)cc1C(=O)NCc1ccc(Cl)cc1	inconclusive: 56.2 µM [inhibitor, single point]
COCCCn1c(SCC(=O)OC2CCCCC2)nnc1-c1cccs1	active: 100 µM
O=C(CCCN1C(=O)CCC1=O)Nc1ccc(Br)cc1F	inconclusive: 79.4 µM [inhibitor, partial curve, poor fit]
Cc1cc(C)cc(NC(=O)COC(=O)CCC2CCCC2)c1	inconclusive: 39.8 µM [inhibitor, partial curve, poor fit]
CC(C)c1ccc(N)c(S(=O)(=O)O)c1	inactive
COc1ccc(Cn2ccc3nc(C)c(C(=O)Nc4cc(C)cc(C)c4)cc3c2=O)cc1	inactive
Cc1cccc(N2CCN(C(=O)c3cccc(N4CCCC4=O)c3)C(C)C2)c1 (stereo not given)	inconclusive: 39.8 µM [inhibitor, single point]
O=C(CN1c2ccccc2Sc2ccccc21)NNC(=S)Nc1ccc(Cl)cc1Cl	inconclusive: 100 µM [inhibitor, single point]
COCCn1c(SCC(=O)NCC(c2ccccc2)N(C)C)nc2sc3c(c2c1=O)CCC3 (stereo not given)	inconclusive: 17.8 µM [inhibitor, single point]
CC1(OC(=O)C2CCCC2)C(=O)C=C2C=C3CCCCN3C=C2C1=O (stereo not given)	inconclusive: 11.2 µM [inhibitor, full curve, poor fit]
Cc1cc(NC(=O)c2cccc(C(=O)Nc3cc(C)on3)n2)no1	inconclusive: 56.2 µM [inhibitor, partial curve, poor fit]
O=C(O)CN1C(=O)/C(=C/c2ccccc2Br)Oc2ccccc21	inconclusive: 12.6 µM [inhibitor, partial curve, poor fit]
Cc1cc(/C=c2/sc3nc4ccccc4n3c2=O)c(C)n1-c1ccccn1	inactive
CCc1cccc2c(C(=O)Cn3nnc(-c4ccc(OC)c(OC)c4)n3)c[nH]c12	inconclusive: 50.1 µM [inhibitor, partial curve]
COc1ccc(Cc2nnc(SCC(=O)Nc3ccccc3)[nH]c2=O)cc1	inconclusive: 89.1 µM [inhibitor, single point]
Cc1ccc(/C=c2\sc3n(c2=O)CN(c2cccc(Br)c2)CN=3)o1	inactive
O=C(COc1ccccc1Cl)Nc1ccc(C(=O)c2ccc(C(=O)O)cc2)cc1	inconclusive: 89.1 µM [inhibitor, single point]
Cc1cccc(N2CCN(C(=O)CN3C(=O)COc4ccc(S(=O)(=O)N5CCCCCC5)cc43)CC2)c1C	inactive
CC(C)c1ccc2oc(-c3ccc(NC(=O)c4ncn[nH]4)cc3)nc2c1	inconclusive: 63.1 µM [inhibitor, partial curve, poor fit]
Cc1ccc(NC(=O)C(C)SCc2nc3sc(C)c(C)c3c(=O)[nH]2)nc1 (stereo not given)	inconclusive: 20 µM [inhibitor, partial curve]

Structure (SMILES)	Potency
Fc1ccccc1COc1ccc(Br)cc1CNCc1cccnc1	inconclusive: 39.8 µM [inhibitor, single point]
Cn1c(=O)[nH]c2nc[nH]c2c1=O	inactive
CC(C)NC(=O)c1[nH]nc2c1CCc1ccccc1-2	inconclusive: 0.631 µM [inhibitor, full curve, poor fit]
COc1ccc(/C=C/C(=O)Nc2ccc(S(=O)(=O)Nc3onc(C)c3C)cc2)cc1OC	inactive
Cc1cccc(C(=O)NNC(=O)c2ccc(F)cc2)c1	inactive
Nc1ccc(CCNc2ncnc3c2ncn3[C@@H]2O[C@H](CO)[C@@H](O)[C@H]2O)cc1	inconclusive: 63.1 µM [inhibitor, partial curve, poor fit]
COC(=O)c1ccc(-n2nnnc2SCc2nn[nH]n2)cc1	inactive
CCC(CO)Oc1cc(NCc2cccnc2)c2ncn(C(C)C)c2c1 (stereo not given)	inconclusive: 14.1 µM [inhibitor, full curve, poor fit]
C=CCC1c2cccc(C(=O)O)c2C(=O)N1c1ccc(F)cc1 (stereo not given)	inconclusive: 100 µM [inhibitor, single point]
CCOC(=O)c1nn(-c2ccccc2)c(=O)c2c(NC(C)=O)scc12	inactive
O=C(O)/C=C/c1cnn(-c2ccccc2)c1	inconclusive: 31.6 µM [inhibitor, partial curve, poor fit]
Cc1ccc(Cn2c(=O)c3c(nc4n3CCN4Cc3ccco3)n(C)c2=O)cc1	inconclusive: 39.8 µM [inhibitor, single point]
Cc1ccc(OCC(=O)OCC(=O)Nc2ccc3c(c2)OCO3)cc1C	inactive
COc1ccc(-c2cc(C(=O)O)c3sc(N4CCCCC4)nc3n2)cc1OC	inconclusive: 28.2 µM [inhibitor, single point]
O=C(COC(=O)c1nc(Cl)c(Cl)c(Cl)c1Cl)NCc1ccccc1	inconclusive: 22.4 µM [inhibitor, partial curve, poor fit]
CCOC(=O)c1ccccc1NS(=O)(=O)c1ccccc1F	active: 79.4 µM
Cc1ccc2nc(-c3ccc(SCC(=O)Nc4nc(C)cs4)nc3)[nH]c2c1	inconclusive: 56.2 µM [inhibitor, partial curve, poor fit]
Cc1ccccc1S(=O)(=O)Cc1ccc(C(=O)NC2CCC(C)CC2)o1 (stereo not given)	inconclusive: 100 µM [inhibitor, single point]
CN(c1ccccc1)S(=O)(=O)c1cccc(NC(=O)c2cc3ccccc3oc2=O)c1	inconclusive: 79.4 µM [inhibitor, partial curve, poor fit]
CC1CCCC(C)N1C(=O)COC(=O)COc1ccccc1C#N (stereo not given)	inconclusive: 100 µM [inhibitor, partial curve, poor fit]
O=C(COc1cccnc1[N+](=O)[O-])Nc1cccc(S(=O)(=O)N2CCOCC2)c1	inconclusive: 70.8 µM [inhibitor, single point]
CCCCNc1c(-c2ccc(OC)c(SC3CCCCC3)c2)nc2cc(C)ccn12	inconclusive: 1 µM [inhibitor, full curve, poor fit]

Structure (SMILES)	Potency
COc1cc(OC)cc(-c2c(C#Cc3ccsc3)c3cc(-c4ccc5cc[nH]c5c4)ccc3n2C)c1	inconclusive: 79.4 µM [inhibitor, partial curve, poor fit]
C#CCOC(=O)c1ccccc1C(=O)n1nnc2ccccc21	inconclusive: 28.2 µM [inhibitor, single point]
COc1ccc(C(=O)CCN2CCN(c3ccccc3OC)CC2)cc1	inconclusive: 12.6 µM [inhibitor, partial curve, poor fit]
CCOc1ccccc1NC(=O)c1ccc2c(Cl)c3c(nc2c1)CCC3	inactive
COC(=O)[C@]1(CC(C)C)N[C@H](c2ccc(-c3ccc4c(c3)OCO4)cc2)[C@@H]2C(=O)N(C)C(=O)[C@@H]21	inconclusive: 31.6 µM [inhibitor, single point]
C[N+]1(CC(=O)c2ccc(Oc3ccccc3)cc2)CCOCC1	inconclusive: 3.55 µM [inhibitor, full curve, poor fit]
Cc1ccc(NC(=O)CSc2nc(=O)n(CCN3CCOCC3)c3c2CCC3)c(C)c1	inactive
COc1cccc(-c2cc(C(=O)N3CCN(S(=O)(=O)c4ccc(Br)cc4)CC3)[nH]n2)c1	inactive
CCOc1ccc(Cc2c(C)[nH]c3ccc(C(=O)O)cc3c2=S)cc1	inconclusive: 12.6 µM [inhibitor, full curve, poor fit]
CC(C(=O)Nc1ccc(O)c(C(=O)O)c1)N1C(=O)/C(=C/c2cccs2)SC1=S (stereo not given)	inconclusive: 14.1 µM [inhibitor, full curve]
CNc1ccccc1C(C)(C)c1cc(-c2cccc(Br)c2)no1	inconclusive: 79.4 µM [inhibitor, partial curve, poor fit]
COC(=O)[C@@]12CCCCN1[C@H](c1ccc(-c3ccc(F)cc3)cc1)[C@@H]1C(=O)N(C)C(=O)[C@@H]12	inconclusive: 79.4 µM [inhibitor, partial curve, poor fit]
O=C(NCc1nc2ccccc2[nH]1)C1=C[C@@H](c2ccc(Br)cc2)C[C@@H](OCCCCO)O1	inconclusive: 39.8 µM [inhibitor, single point]
CCc1ccc(NC(=O)CN(c2ccc(C)cc2)S(=O)(=O)c2cccs2)cc1	inactive
COc1cc(NC(=S)NCCCN(C)C)c(OC)cc1NC(=O)c1ccco1	inconclusive: 79.4 µM [inhibitor, single point]
CCOc1c(C)cc(-c2ncccc2O)cc1C	inconclusive: 22.4 µM [inhibitor, single point]
Cc1ccccc1CNc1ccc(C(CC(N)=O)NC(=O)c2ccccc2)cc1[N+](=O)[O-] (stereo not given)	inconclusive: 70.8 µM [inhibitor, single point]
COc1cc(NC(=O)CN2c3ccccc3S(=O)(=O)c3ccccc32)cc(OC)c1	inactive
S=c1[nH]nc(-c2cc(-c3ccccc3)n[nH]2)n1/N=C/c1ccccc1	inactive
CCCC(O)c1nc2ccccc2n1Cc1ccccc1OC (stereo not given)	inactive
CCOC(=O)C1CCN(C(=O)CSc2ccccc2)CC1	inconclusive: 3.98 µM [inhibitor, partial curve, poor fit]

3 entries from above, field by field:
O=C(O)/C=C/c1cnn(-c2ccccc2)c1
  Potency: inconclusive: 31.6 µM [inhibitor, partial curve, poor fit]
Cc1ccc(Cn2c(=O)c3c(nc4n3CCN4Cc3ccco3)n(C)c2=O)cc1
  Potency: inconclusive: 39.8 µM [inhibitor, single point]
Cc1ccc(OCC(=O)OCC(=O)Nc2ccc3c(c2)OCO3)cc1C
  Potency: inactive
